Test results from patent US20020164686A1.
These are yes or no findings as the source states them, for the method shown. Some results given as binding are weak or reduced against the parent protein; the word gives no strength. Tags and fused reporters may be left off the sequences shown.

Biological target: T1, LDCAM (clone isolated from the WI-26 cell line expression library, expressed on transfected CV1/EBNA cells) (human) (UniProt Q9BY67)
T1 sequence: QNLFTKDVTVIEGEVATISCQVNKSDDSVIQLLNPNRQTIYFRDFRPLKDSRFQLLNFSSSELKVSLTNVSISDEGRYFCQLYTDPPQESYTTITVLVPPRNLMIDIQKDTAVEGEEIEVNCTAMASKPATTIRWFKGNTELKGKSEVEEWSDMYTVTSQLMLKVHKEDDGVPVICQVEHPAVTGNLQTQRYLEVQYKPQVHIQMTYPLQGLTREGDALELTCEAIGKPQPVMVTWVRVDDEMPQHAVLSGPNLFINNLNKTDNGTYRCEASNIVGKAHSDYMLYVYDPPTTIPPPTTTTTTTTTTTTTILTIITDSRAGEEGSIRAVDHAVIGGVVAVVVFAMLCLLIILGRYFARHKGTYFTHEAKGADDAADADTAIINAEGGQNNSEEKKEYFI
Assay: expression cloning: CV1/EBNA cells transfected with the WI-26 cDNA clone, incubated with 1 ug/mL B7L-1/Fc, detected with 125I-labeled anti-human F(ab)2 and autoradiography

binding: binds
B1: human B7L-1/Fc fusion protein (Fc fusion, not shown: a dimerising Fc or GST)
chain: PGGANLSQDGYWQEQDLELGTLAPLDEAISSTVWSSPDMLASQDSQPWTSDETVVAGGTVVLKCQVKDHEDSSLQWSNPAQQTLYFGEKRALRDNRIQLVTSTPHELSISISNVALADEGEYTCSIFTMPVRTAKSLVTVLGIPQKPIITGYKSSLREKDTATLNCQSSGSKPAARLTWRKGDQELHGEPTRIQEDPNGKTFTVSSSVTFQVTREDDGASIVCSVNHESLKGADRSTSQRIEVLYTPTAMIRPDPPHPREGQKLLLHCEGRGNPVPQQYLWEKEGSVPPLKMTQESALIFPFLNKSDSGTYGCTATSNMGSYKAYYTLNVNDPSPVPSSSSTYH
